Hit rate of the full screen: of about 340,000 compounds, about 6,200 (1.8%) were called active. The inconclusive results got no clear call from the source; some entries with a clear call stand among them for comparison. Calls come from the whole dose curve; as a rule, active = well fitted activation curve with a large enough effect; inconclusive = small, poorly fitted or top-dose-only effect; inactive = no such curve, though single readings can be large or run the other way. Potencies of inconclusive entries are doubtful fits and often do not repeat.
Assay: A quantitative high throughput screen for small molecules that induce DNA re-replication in SW480 colon adenocarcinoma cells. For re-replication activation: % of control where 0% means no effect. Note: nearly all actives have a fitted effect of over 55% in size.
Conditions: Hoechst DNA content imaging, 48 h; re-replication activation: at 46.1 µM (top of the series) unless noted
Procedure, shortened: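 Hoechst fluorescence of nuclei (405 nm excitation, 500-530 nm emission) measured by plate-scanning imager after 48 hr compound exposure at 37 C; re-replication scored as increased number of nuclei with elevated intensity.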
Potency is the fitted concentration of half-maximal effect.

Compound	Potency	re-replication activation
Cc1ccc2[nH]c(-c3ccccc3)cc(=O)c2c1	inconclusive: 0.731 µM [activator, full curve, poor fit]	
Nc1nc(Nc2ccccc2F)sc1C(=O)c1ccccc1	inconclusive: 20.6 µM [activator, single point]	
CC(/C=C/c1ccccc1)=N/NC(=O)c1nc2nc(C)cc(C)n2n1	inconclusive: 29.1 µM [activator, single point]	
COC(=O)C1=C(C)NC2=C(C(=O)CCC2)C1c1cn(Cc2ccc(Br)cc2)nc1-c1ccccc1 (configuration not stated)	inconclusive: 23.1 µM [activator, single point]	
NC(=O)CC1C(=O)N(c2ccc(F)cc2)C(=O)N1NC(=O)CCc1ccccc1 (configuration not stated)	inactive	
CCCCCn1c(=N)c(S(=O)(=O)c2ccc(Br)cc2)cc2c(=O)n3cccc(C)c3nc21	inconclusive: 23.1 µM [activator, partial curve, poor fit]	
Cc1c(C(=O)OCC2CCCO2)[nH]c2c1C(=O)CC(c1ccco1)C2 (configuration not stated)	active: 2.91 µM	
Cc1c(C(=O)Nc2ccc(Cl)cc2)c2ccccn2c1CCc1ccncc1	inactive	
O=C(CCc1nc2ccccc2[nH]c1=O)N/N=C/c1ccccc1	inactive	
CCS(=O)(=O)c1ccc(OC)c(N=Nc2ccc(O)c3ncccc23)c1	inconclusive: 18.4 µM [activator, single point]	
Cc1cccc(C)c1NC(=O)C(C)c1ccc(-c2ccccc2)c(F)c1 (configuration not stated)		inactive: -2.9% [at 9.22 µM]
CC(=O)c1ccc(OCc2cc(C(=O)N(C)C3CCOC3)no2)cc1 (configuration not stated)	inactive	
Cc1cc(C)nc(N/N=C/C=C/c2ccccc2)n1		inconclusive: -199% [activator]
O=C(O)CN1C(=O)/C(=C\c2ccc(OC(=O)c3ccco3)cc2)SC1=S	inconclusive: 1 µM [activator, partial curve, poor fit]	
O=C(Nc1ccccc1C(=O)N1CCOCC1)c1ccc(Cl)cc1	inconclusive: 8.2 µM [activator, partial curve, poor fit]	
COc1ccc(/C=C/C(=O)C2CC2)cc1COc1cccc(C)c1C	inconclusive: 16.4 µM [activator, single point]	
CCOc1ccc(N2CC(NS(=O)(=O)c3cccnc3)CC2=O)cc1 (configuration not stated)	inconclusive: 32.6 µM [activator, single point]	
Cc1noc(C)c1COc1ccccc1C(=O)N1CCN(c2cccc(C(F)(F)F)c2)CC1	inconclusive: 20.6 µM [activator, single point]	
N=c1cc(C2(O)CCCCC2)n2c(nc3ccccc32)s1	inconclusive: 20.6 µM [activator, single point]	
Cc1ccc(OCCCCN(C)Cc2ccccc2)c(Br)c1	inconclusive: 13 µM [activator, partial curve]	
Cc1csc2ncnc(N3CCN(C(=S)Nc4ccc(C(F)(F)F)cc4)CC3)c12	inconclusive: 2.91 µM [activator, single point]	

Rewritten with bars between the fields: 2 of the compounds above.
Compound | Potency | re-replication activation
NC(=O)CC1C(=O)N(c2ccc(F)cc2)C(=O)N1NC(=O)CCc1ccccc1 (configuration not stated) | inactive | 
CCCCCn1c(=N)c(S(=O)(=O)c2ccc(Br)cc2)cc2c(=O)n3cccc(C)c3nc21 | inconclusive: 23.1 µM [activator, partial curve, poor fit] | 

(next part)

Compound	Potency	re-replication activation
Fc1ccccc1NC(=S)NN(Cc1ccccc1)c1ccccc1	inconclusive: 17.8 µM [activator, single point]	
C[C@H](CO)N1C[C@H](C)[C@@H](CN(C)S(=O)(=O)c2cn(C)cn2)Oc2ccc(NC(=O)NC3CCCCC3)cc2C1=O	inactive	
O=C(/C(=C(\O)c1ccccc1)c1ncc[nH]1)c1ccccc1	inconclusive: 16.4 µM [activator, partial curve, poor fit]	
NNC(=O)/C(=C\c1ccco1)NC(=O)c1ccco1	inconclusive: 25.9 µM [activator, single point]	
O=C1ON=C(c2cccc([N+](=O)[O-])c2)/C1=C/c1ccc(O)cc1	inconclusive: 29.1 µM [activator, single point]	
CCOc1ccccc1N(CC(=O)NC1CCCC1)C(=O)CNC(=O)c1cccs1	inactive	
CCOCCCNC(=O)Cn1cnc2sc(C)c(S(=O)(=O)N3CCN(c4ncccn4)CC3)c2c1=O	active: 5.17 µM	
COc1ccc(N(CC(=O)Nc2ccccc2OC)S(=O)(=O)c2ccccc2)cc1Cl	inconclusive: 0.103 µM [activator, full curve, poor fit]	
CCCCN=C1NN=C(c2ccc3c(c2)OCCO3)CS1	inconclusive: 6.51 µM [activator, full curve, poor fit]	
COc1ccc(-c2cc(C)nc3c(-c4ccccc4)cnn23)cc1	inconclusive: 16.4 µM [activator, single point]	
O=C(NNc1ccccc1)Nc1cc(Cl)ccc1Cl	inconclusive: 29.1 µM [activator, single point]	
CCOC(=O)c1c(C)[nH]c(C(=O)CSc2nnc(-c3ccncc3)n2CC)c1C	inconclusive: 20.6 µM [activator, single point]	
CCCOc1c(Br)cc(C2C3=C(CCCC3=O)N(C)C3=C2C(=O)CCC3)cc1OC	inconclusive: 14.6 µM [activator, single point]	
O=C(NC(=Nc1ccccc1)N1CCOCC1)Nc1ccccc1	inconclusive: 29.1 µM [activator, single point]	
O=C(NCc1ccc(F)c(F)c1)C1CCC(=O)N(CC2CCCCC2)C1 (configuration not stated)	inactive	
Cc1cccc2c(N)c3c(nc12)CCCC3 (tested in a mixture with another compound)	inconclusive: 0.92 µM [activator, full curve, poor fit]	
COc1ccc(C(=O)NCC(c2ccco2)N(C)C)cc1S(=O)(=O)NCc1ccc(Cl)cc1 (configuration not stated)	inactive	
O=C(CCS(=O)(=O)c1ccccc1)Nc1nncs1	inconclusive: 16.4 µM [activator, single point]	
COc1ccc(C(=O)O/N=C(\N)c2ccccc2Cl)cc1OC	inconclusive: 29.1 µM [activator, single point]	
CC(c1ccccc1)N1C(=O)c2ccccc2C1(O)Cc1ccccc1 (configuration not stated)	inconclusive: 29.1 µM [activator, single point]	
Clc1ccc(CNc2ccc(CNc3ncn[nH]3)cc2)cc1	inactive	

Reference: PubChem BioAssay AID624297 (National Center for Advancing Translational Sciences (NCATS), 2012)
